These results are taken from article PMC11282289, “Serial X-ray liquidography: multi-dimensional assay framework for exploring biomolecular structural dynamics with microgram quantities” (Nature Communications, 2024).

Substitutions are numbered along the chain they refer to. Numbers in names are those of the source. Results are given in words; binding and its absence hold for the method and conditions named.

Experiment [1] concerns the target monomeric mutant of AtUVR8 (AtUVR8-R146A/R286A), residues 12-381 (Arabidopsis thaliana) (UniProt Q9FN03). Briefly: static small angle X-ray scattering (SAXS); conventional static SAXS, flow cell, no laser (ground state); difference scattering between wild type and monomeric mutant; 25 mM Tris pH 7.5, 100 mM NaCl, 2 mM DTT; both purified.
The target of experiment [2] is Arabidopsis thaliana UV-B resistance 8 (AtUVR8), wild type, residues 12-381 (Arabidopsis thaliana) (UniProt Q9FN03). Briefly: time-resolved X-ray solution scattering (serial X-ray liquidography, SXL); AtUVR8 at 0.1 and 0.3 mM in SXL chip microchambers; 300 nm laser pulse (0.8 mJ/mm^2), delays 10 us to 316 ms; 25 mM Tris pH 7.5, 100 mM NaCl, 2 mM DTT; both purified.

B1: monomeric mutant of AtUVR8 (AtUVR8-R146A/R286A), residues 12-381 (domain or fragment, UniProt Q9FN03 12-381)
chain: APPRKVLIISAGASHSVALLSGDIVCSWGRGEDGQLGHGDAEDRPSPTQLSALDGHQIVSVTCGADHTVAYSQSGMEVYSWGWGDFGRLGHGNSSDLFTPLPIKALHGIRIKQIACGDSHCLAVTMEGEVQSWGANQNGQLGLGDTEDSLVPQKIQAFEGIRIKMVAAGAEHTAAVTEDGDLYGWGWGRYGNLGLGDRTDRLVPERVTSTGGEKMSMVACGWRHTISVSYSGALYTYGWSKYGQLGHGDLEDHLIPHKLEALSNSFISQISGGWAHTMALTSDGKLYGWGWNKFGQVGVGNNLDQCSPVQVRFPDDQKVVQVSCGWRHTLAVTERNNVFAWGRGTNGQLGIGESVDRNFPKIIEALSVDG
As for B1, the binding entry in experiment [1] is on record as “no binding”.

B2: Arabidopsis thaliana UV-B resistance 8 (AtUVR8), wild type, residues 12-381 (domain or fragment, UniProt Q9FN03 12-381, looked up)
chain: B1 chain with A135R, A275R
notes: UV-B resistance 8 (UVR8), Arabidopsis thaliana, residues 12-381; Homodimer in the dark (ground) state; also called 2M-T-AtUVR8-His; source: E. coli BL21(DE3) GOLD, purified (IMAC, TEV cleavage, Q-Sepharose, MBPTrap flow-through); not shown: MBP-His-tag, N-terminal, cleaved
As for B2, the binding result in experiment [2] is reported as “no binding (condition: after a 300 nm (UV-B) laser pulse)”.
